Measurements taken from patent publication US20230220056A1.
These are yes or no findings as the source states them, for the method shown. Some binding calls cover weakened binding; strength is not graded here.

Sequences of proteins named here, by UniProt entry; tags and fusion partners are left off. Residues count along the entry.
UniProt P14625, residues 22-799: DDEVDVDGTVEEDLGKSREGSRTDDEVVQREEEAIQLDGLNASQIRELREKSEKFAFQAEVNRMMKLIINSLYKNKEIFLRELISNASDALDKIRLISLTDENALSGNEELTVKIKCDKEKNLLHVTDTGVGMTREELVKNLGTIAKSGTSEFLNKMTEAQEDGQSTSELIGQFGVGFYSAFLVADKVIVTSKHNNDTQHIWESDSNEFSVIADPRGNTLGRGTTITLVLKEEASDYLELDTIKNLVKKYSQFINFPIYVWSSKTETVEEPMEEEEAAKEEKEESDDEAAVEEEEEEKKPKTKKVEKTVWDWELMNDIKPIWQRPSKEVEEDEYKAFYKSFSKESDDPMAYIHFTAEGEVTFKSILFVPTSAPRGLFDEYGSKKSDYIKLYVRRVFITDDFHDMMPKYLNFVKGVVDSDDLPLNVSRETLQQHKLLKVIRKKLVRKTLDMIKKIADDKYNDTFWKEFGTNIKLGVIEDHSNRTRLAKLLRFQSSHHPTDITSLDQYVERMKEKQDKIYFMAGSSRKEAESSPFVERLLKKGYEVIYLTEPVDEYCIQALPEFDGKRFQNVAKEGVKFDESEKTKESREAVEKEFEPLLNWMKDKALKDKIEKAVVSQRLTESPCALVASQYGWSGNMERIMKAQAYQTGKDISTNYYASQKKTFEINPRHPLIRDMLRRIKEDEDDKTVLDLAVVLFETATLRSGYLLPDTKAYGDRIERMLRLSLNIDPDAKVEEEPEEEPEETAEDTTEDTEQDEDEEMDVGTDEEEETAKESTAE
UniProt Q66HD0, residues 22-800: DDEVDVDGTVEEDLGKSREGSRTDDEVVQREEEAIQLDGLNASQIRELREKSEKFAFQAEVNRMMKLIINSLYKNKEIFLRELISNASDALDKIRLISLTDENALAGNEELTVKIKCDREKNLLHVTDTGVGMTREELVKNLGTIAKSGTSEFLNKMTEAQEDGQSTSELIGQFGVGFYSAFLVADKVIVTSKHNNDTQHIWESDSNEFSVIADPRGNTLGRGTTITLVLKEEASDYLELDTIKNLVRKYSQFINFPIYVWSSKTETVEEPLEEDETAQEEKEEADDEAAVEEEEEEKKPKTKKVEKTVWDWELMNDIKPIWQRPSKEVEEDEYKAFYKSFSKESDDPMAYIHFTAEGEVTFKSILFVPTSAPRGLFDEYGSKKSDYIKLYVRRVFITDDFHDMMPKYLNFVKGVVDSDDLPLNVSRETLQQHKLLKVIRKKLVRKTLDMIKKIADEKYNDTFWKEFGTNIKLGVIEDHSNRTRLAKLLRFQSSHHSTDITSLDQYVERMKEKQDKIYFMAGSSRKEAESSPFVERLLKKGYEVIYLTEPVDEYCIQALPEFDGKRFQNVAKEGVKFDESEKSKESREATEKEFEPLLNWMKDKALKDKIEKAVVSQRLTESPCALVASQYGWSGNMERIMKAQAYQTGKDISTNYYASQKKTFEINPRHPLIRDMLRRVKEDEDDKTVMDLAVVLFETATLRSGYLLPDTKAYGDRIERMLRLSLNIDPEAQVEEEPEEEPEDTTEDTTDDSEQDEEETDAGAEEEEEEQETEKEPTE
UniProt P02769, residues 25-607: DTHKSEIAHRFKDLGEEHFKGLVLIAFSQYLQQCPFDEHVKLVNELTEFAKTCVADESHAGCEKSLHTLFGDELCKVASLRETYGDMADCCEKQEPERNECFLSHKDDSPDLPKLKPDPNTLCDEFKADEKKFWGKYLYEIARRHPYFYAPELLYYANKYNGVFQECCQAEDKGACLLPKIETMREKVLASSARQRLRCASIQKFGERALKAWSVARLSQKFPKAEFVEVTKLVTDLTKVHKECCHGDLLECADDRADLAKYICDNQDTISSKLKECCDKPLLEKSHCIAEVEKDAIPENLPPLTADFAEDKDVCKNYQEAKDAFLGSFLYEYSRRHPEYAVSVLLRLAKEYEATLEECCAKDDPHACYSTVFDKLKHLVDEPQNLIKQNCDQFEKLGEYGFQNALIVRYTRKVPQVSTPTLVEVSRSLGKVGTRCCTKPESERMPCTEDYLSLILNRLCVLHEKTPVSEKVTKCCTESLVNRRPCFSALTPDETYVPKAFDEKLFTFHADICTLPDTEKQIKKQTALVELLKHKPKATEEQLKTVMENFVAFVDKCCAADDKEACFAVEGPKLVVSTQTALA

Legend:
[1] = target: recombinant human GRP94 (human) (UniProt P14625); experiment: ELISA on coated antigen, single IgG concentration not given
[2] = target: recombinant rat GRP94 (rat) (UniProt Q66HD0); experiment: as above
[3] = target: recombinant human GRP94 (human) (UniProt P14625); experiment: ELISA, antigen coated on plate
[4] = target: recombinant rat GRP94 (rat) (UniProt Q66HD0); experiment: ELISA, antigen coated on plate
[5] = target: recombinant human GRP94 (human) (UniProt P14625); experiment: ELISA, 100 ng rhGRP94 coated per well, IgG 0-500 nM
rhGRP94 Part. 1 (human) = rhGRP94 Part. 1 (human) (UniProt P14625); experiment: epitope mapping ELISA, 100 ng fragment coated, IgG 1 µg/mL
BSA (bovine) = BSA (bovine) (UniProt P02769); experiment: epitope mapping ELISA, 100 ng BSA coated as negative control, IgG 1 µg/mL

binding [1]	binding [2]	binding [3]	binding [4]	binding [5]	binding (rhGRP94 Part. 1 (human))	binding (BSA (bovine))	Binder
binds	binds	binds	binds	binds	binds	no binding (tested: 1 µg/mL)	anti-GRP94 human IgG antibody B5 (antibody, V domains shown) VH: EVQLLESGGGLVQPGGSLRLSCAASGFTFSNYYMSWVRQAPGKGLEWVSGIYPNSGSTYYADSVKGRFTISRDNSKNTLYLQMNSLRAEDTAVYYCARDPLHPARFPFDYWGQGTLVTVSS VL: QSVLTQPPSASGTPGQRVTISCTGSSSNIGNNAVSWYQQLPGTAPKLLIYADSHRPSGVPDRFSGSKSGTSASLAISGLRSEDEADYYCGAWDASLNAYVFGGGTKLTVL
binds	binds	binds	binds	binds	binds	no binding (tested: 1 µg/mL)	anti-GRP94 human IgG antibody E5 (antibody, V domains shown) VH: EVQLLESGGGLVQPGGSLRLSCAASGFTFSNYAMSWVRQAPGKGLEWVSGISSSSGSTYYADSVKGRFTTSRDNSKNTLYLQMNSLRAEDTAVYYCARDRHPFSPNWFDYWGQGTLVTVSS VL: QSVLTQPPSASGTPGQRVTISCSGSPSNIGSNTVTWYQQLPGTAPKLLIYADSHRPSGVPDRFSGSKSGTSASLAISGLRSEDEADYYCASWDDSLNGYVFGGGTKLTVL
binds	binds	binds	binds	binds	binds	no binding (tested: 1 µg/mL)	anti-GRP94 human IgG antibody 3G7 (antibody, V domains shown) VH: EVQLLESGGGLVQPGGSLRLSCAASGFTFSNYSMSWVRQAPGKGLEWVSGIYYGSGNKYYADSVKGRFTISRDNSKNTLYLQMNSLRAEDTAVYYCAKNLASFDYWGQGTLVTVSS VL: QSVLTQPPSASGTPGQRVTISCSGSSSNIGSNSVNWYQQLPGTAPKLLIYSNSHRPSGVPDRFSGSKSGTSASLAISGLRSEDEADYYCGTWDSSLSGYVFGGGTKLTVL
